In the supplement of paper PMC12819154, “High-throughput peptide-centric local stability assay extends protein–ligand identification to membrane proteins, tissues and bacteria” (Nature Structural & Molecular Biology, 2025) one finds log2 fold change data, which are given here for 29 targets.

Chains of the proteins cited; added tags and fusions are not shown. Lines headed by an entry give the natural chain unless they say otherwise; changes in a name come on top.
UniProt Q9Y2Q3: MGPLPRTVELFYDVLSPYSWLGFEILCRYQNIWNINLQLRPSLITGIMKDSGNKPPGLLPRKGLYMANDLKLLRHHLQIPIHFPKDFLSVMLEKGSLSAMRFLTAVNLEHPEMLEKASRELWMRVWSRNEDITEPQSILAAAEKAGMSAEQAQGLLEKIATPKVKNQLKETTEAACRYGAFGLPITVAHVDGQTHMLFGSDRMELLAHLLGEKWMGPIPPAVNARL
UniProt Q9Y3C0: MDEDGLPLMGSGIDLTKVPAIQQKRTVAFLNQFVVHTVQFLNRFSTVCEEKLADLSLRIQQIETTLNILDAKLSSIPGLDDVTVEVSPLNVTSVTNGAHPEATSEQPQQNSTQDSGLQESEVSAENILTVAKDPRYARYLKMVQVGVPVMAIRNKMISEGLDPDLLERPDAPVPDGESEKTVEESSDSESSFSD
UniProt Q9Y530: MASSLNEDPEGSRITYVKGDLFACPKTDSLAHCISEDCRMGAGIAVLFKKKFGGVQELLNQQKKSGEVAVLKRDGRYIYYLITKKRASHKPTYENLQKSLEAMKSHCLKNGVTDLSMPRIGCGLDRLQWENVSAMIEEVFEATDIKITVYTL
UniProt Q9Y2D4: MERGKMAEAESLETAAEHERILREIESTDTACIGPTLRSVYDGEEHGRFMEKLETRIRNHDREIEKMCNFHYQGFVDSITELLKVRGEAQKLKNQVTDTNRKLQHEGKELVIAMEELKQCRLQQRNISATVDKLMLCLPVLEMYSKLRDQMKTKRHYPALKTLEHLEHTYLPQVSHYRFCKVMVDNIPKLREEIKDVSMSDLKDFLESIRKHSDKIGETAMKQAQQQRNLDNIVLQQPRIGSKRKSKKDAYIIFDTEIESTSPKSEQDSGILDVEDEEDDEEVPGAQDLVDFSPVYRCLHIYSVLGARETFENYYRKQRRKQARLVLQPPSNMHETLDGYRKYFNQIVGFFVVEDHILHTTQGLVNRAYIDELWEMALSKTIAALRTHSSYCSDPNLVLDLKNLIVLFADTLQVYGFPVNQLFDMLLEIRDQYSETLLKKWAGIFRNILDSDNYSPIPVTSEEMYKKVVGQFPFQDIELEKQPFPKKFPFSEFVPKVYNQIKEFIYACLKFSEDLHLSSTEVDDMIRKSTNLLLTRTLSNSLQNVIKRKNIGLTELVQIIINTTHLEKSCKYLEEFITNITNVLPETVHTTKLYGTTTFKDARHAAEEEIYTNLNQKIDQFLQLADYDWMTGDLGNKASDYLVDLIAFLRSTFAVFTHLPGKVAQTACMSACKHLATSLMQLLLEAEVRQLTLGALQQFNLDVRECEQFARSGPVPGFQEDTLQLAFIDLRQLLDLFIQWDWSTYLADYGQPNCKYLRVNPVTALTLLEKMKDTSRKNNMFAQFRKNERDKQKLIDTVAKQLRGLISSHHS
UniProt Q9Y5B6: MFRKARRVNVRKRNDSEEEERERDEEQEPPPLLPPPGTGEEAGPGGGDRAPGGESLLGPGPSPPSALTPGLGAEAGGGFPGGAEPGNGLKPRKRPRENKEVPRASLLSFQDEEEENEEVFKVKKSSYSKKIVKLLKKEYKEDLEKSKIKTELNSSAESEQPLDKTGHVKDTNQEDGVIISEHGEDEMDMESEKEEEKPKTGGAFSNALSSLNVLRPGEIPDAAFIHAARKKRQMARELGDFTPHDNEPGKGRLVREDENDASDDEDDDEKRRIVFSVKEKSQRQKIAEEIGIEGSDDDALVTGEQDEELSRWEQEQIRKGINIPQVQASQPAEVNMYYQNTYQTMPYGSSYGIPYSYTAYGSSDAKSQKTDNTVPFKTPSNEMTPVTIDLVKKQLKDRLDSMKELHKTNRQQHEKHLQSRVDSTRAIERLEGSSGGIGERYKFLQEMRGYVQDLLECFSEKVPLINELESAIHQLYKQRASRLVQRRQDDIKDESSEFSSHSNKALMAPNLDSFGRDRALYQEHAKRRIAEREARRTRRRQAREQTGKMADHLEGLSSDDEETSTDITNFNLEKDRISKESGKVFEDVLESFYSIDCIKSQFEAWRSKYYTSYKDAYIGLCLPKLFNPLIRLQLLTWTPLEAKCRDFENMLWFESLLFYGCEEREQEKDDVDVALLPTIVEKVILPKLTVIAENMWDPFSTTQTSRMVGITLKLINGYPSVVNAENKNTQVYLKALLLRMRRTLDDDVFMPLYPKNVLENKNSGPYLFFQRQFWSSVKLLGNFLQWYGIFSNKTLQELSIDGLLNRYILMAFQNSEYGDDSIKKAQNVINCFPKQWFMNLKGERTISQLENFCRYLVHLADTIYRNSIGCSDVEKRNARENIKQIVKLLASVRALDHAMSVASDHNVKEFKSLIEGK
UniProt Q9Y5N6: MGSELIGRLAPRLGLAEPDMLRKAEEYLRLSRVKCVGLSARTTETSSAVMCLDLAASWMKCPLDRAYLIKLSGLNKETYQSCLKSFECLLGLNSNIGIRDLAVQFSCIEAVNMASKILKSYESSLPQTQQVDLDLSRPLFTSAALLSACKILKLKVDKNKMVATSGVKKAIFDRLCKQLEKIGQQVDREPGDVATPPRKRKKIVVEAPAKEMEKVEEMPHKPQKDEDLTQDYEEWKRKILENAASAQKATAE
UniProt Q9Y6J8: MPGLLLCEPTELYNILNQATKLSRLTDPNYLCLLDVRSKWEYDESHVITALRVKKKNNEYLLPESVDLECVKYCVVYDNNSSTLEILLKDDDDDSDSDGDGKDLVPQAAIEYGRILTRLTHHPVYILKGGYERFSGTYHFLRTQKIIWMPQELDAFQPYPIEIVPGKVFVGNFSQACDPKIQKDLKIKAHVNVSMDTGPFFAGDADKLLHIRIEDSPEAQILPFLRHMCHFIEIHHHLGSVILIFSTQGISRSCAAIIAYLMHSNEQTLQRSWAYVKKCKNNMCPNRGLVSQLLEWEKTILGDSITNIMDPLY
UniProt Q9Y3A4: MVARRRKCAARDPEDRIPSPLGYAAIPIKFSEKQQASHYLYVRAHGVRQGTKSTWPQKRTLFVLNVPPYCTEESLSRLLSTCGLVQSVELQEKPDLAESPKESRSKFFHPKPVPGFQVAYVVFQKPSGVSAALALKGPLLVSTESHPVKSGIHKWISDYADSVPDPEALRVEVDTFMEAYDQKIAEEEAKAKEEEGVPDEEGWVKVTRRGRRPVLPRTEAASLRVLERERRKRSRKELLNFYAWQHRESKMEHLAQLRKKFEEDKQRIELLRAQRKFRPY
UniProt Q9Y3B6: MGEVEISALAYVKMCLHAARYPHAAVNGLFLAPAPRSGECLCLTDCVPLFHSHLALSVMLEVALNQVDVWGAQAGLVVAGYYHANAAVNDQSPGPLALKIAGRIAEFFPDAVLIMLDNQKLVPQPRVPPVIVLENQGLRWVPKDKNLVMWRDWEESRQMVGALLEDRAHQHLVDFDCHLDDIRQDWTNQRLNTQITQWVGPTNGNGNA
UniProt Q9Y6M4: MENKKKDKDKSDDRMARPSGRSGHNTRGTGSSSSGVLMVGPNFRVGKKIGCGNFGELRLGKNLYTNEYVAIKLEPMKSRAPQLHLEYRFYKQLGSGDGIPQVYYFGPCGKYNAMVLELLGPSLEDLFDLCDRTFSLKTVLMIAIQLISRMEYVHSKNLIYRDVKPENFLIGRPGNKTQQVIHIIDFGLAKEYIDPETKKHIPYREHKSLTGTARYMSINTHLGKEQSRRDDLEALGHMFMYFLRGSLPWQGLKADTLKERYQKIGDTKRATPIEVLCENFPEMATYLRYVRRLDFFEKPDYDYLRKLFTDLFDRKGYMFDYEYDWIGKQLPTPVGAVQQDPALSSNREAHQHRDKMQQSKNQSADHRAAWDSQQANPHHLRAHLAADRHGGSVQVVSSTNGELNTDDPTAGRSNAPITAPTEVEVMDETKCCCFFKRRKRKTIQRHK
UniProt Q9Y324: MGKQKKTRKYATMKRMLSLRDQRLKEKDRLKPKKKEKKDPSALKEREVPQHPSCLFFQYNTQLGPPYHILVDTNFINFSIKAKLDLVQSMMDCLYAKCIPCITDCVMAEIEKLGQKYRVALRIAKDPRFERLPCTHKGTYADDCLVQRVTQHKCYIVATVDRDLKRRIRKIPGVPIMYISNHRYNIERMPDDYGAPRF
UniProt Q9Y3I0: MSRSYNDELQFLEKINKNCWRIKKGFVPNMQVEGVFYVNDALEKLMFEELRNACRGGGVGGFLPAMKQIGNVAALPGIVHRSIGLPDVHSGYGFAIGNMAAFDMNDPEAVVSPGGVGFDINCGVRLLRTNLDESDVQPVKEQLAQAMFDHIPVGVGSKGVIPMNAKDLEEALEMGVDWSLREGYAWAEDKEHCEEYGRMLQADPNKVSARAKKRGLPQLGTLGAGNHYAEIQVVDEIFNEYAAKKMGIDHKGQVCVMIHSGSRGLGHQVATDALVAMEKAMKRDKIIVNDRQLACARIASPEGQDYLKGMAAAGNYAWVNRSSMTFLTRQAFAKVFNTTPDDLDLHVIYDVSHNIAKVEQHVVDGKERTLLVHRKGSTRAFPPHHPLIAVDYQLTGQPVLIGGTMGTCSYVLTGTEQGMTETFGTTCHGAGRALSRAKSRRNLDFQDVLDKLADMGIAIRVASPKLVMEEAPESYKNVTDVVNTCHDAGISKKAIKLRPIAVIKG
UniProt Q9Y2S6, whole entry: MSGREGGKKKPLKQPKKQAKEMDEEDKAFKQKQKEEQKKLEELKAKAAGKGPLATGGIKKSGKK
UniProt Q9Y2B0: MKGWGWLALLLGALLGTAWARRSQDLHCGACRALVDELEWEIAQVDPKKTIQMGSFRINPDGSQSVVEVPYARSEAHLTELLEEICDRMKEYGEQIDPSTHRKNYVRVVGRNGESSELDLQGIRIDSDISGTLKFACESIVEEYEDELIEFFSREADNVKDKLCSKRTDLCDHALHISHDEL
UniProt Q9Y680: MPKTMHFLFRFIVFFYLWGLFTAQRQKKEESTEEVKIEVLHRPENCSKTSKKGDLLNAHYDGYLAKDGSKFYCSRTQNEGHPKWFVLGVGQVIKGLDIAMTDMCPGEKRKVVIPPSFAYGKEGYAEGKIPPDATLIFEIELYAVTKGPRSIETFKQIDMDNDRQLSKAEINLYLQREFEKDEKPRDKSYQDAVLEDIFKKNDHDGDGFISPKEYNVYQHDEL
UniProt Q9Y6M0: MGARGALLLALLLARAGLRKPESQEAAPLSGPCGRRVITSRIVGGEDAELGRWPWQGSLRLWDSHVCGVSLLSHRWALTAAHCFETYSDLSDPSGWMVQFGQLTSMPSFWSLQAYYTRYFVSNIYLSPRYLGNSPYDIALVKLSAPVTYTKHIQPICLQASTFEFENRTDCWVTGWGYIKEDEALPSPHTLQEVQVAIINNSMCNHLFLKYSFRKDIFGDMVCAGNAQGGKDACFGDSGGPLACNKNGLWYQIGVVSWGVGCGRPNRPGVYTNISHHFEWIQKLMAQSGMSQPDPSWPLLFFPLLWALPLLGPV
UniProt Q9Y6J9: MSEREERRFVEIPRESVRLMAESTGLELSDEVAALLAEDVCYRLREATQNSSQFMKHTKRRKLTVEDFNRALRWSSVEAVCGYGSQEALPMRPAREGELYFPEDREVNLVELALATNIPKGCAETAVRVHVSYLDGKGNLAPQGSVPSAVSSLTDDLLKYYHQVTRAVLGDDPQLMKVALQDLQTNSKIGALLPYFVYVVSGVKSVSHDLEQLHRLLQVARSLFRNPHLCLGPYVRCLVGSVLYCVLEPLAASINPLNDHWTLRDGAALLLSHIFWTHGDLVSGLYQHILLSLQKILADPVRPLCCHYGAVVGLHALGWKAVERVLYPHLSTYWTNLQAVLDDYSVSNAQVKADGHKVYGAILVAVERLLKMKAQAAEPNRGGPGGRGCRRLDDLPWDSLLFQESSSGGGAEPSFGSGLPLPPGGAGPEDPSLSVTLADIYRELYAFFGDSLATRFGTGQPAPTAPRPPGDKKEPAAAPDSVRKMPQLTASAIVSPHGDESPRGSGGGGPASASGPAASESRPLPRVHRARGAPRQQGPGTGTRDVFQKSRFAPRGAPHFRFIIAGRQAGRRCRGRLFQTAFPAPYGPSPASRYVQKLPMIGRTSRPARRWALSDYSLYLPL
UniProt Q9Y3C6: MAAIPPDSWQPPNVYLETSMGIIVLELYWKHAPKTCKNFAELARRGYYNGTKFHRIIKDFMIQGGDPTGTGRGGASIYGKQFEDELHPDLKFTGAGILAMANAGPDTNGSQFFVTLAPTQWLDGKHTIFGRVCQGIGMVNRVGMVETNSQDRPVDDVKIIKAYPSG
UniProt Q9Y617: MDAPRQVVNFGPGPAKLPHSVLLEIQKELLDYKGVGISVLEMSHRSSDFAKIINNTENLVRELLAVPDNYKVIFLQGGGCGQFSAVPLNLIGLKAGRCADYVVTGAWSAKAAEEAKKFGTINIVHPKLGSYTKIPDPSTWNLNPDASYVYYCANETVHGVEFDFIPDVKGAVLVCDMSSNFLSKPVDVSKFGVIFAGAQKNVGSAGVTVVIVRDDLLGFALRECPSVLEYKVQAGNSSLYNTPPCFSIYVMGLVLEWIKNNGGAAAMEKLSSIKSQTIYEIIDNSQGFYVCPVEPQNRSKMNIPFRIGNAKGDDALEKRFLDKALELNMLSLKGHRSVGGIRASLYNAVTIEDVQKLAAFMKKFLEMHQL

This is one part of the list. Small differences around the control level are noise.

Compound in the assay: Cc1nc(Nc2ncc(C(=O)Nc3c(C)cccc3Cl)s2)cc(N2CCN(CCO)CC2)n1 [dasatinib]
Description: log2 fold change of tryptic peptide abundance, ligand vs vehicle (limited proteolysis) (log2 ratio); higher = more trypsin-susceptible (destabilized). The settings on record: ligand concentration: 5 uM; sample: K562 cleared lysate.
Take “BZW2 (peptide sequence: GKSVFLDQMK, peptide start residue: 390) (UniProt Q9Y6E2)”: the log2 fold change is -0.445.
The figure for “GSTK1 (peptide sequence: FLTAVNLEHPEMLEK, peptide start residue: 102) (UniProt Q9Y2Q3)” is -0.112; for “UniProt Q9Y3C0 (peptide sequence: FSTVCEEK, peptide start residue: 44)” it is -0.117.
Regarding “UniProt Q9Y530 (peptide sequence: GDLFACPK, peptide start residue: 19)”, the log2 fold change was -0.117.
The figure for “UniProt Q9Y520 (peptide sequence: MPPPANLPSLKAENK, peptide start residue: 54)” is 0.392; for “TDRKH (peptide sequence: IAHSAETR, peptide start residue: 204) (UniProt Q9Y2W6)” it is 0.574; for “EXOC6B (peptide sequence: TLSNSLQNVIK, peptide start residue: 537) (UniProt Q9Y2D4)” it is -0.382.
In the case of “UniProt Q9Y5B6 (peptide sequence: DRLDSMK, peptide start residue: 397)” it was -0.462; in that of “ORC6 (peptide sequence: IGQQVDREPGDVATPPR, peptide start residue: 182) (UniProt Q9Y5N6)”, -0.206.
The figure for “RRP15 (peptide sequence: VKPDVVQDKETER, peptide start residue: 148) (UniProt Q9Y3B9)” is 0.114.
As to “UniProt Q9Y6J8 (peptide sequence: SKWEYDESHVITALR, peptide start residue: 38)”, the log2 fold change was -0.233.
For the target “MRPS23 (peptide sequence: EVPQDQHLEAPADQSK, peptide start residue: 170) (UniProt Q9Y3D9)”, the log2 fold change stood at 0.459.
The figure for “NDUFB9 (peptide sequence: EAEEEFWYR, peptide start residue: 66) (UniProt Q9Y6M9)” is 0.351; for “RRP7A (peptide sequence: CAARDPEDRIPSPLGYAAIPIK, peptide start residue: 8) (UniProt Q9Y3A4)” it is 0.197; for “THRAP3 (peptide sequence: RNREEEWDPEYTPK, peptide start residue: 863) (UniProt Q9Y2W1)” it is 0.266.
In the case of “UniProt Q9Y3B6 (peptide sequence: YPHAAVNGLFLAPAPR, peptide start residue: 21)” it was 0.404; in that of “UniProt Q9Y6M4 (peptide sequence: GSLPWQGLK, peptide start residue: 247)”, -0.248; in that of “UniProt Q9Y2E4 (peptide sequence: YHPIDIETSVIR, peptide start residue: 1469)”, -0.484.
In the case of “FCF1 (peptide sequence: MPDDYGAPR, peptide start residue: 189) (UniProt Q9Y324)”, the log2 fold change worked out at 0.473.
In the case of “UniProt Q9Y3I0 (peptide sequence: EGYAWAEDKEHCEEYGR, peptide start residue: 182)”, the log2 fold change was 0.189.
For “UniProt Q9Y2S6 (peptide sequence: AAGKGPLATGGIKK, peptide start residue: 47)”, the log2 fold change was -0.313.
In the case of “CNPY2 (peptide sequence: SQDLHCGACR, peptide start residue: 23) (UniProt Q9Y2B0)”, the log2 fold change was found to be 0.138.
In the case of “FKBP7 (peptide sequence: NDHDGDGFISPK, peptide start residue: 201) (UniProt Q9Y680)” it was 0.284.
The figure for “PRSS21 (peptide sequence: LWDSHVCGVSLLSHR, peptide start residue: 61) (UniProt Q9Y6M0)” is -0.274; for “TAF6L (peptide sequence: AVLGDDPQLMK, peptide start residue: 167) (UniProt Q9Y6J9)” it is -0.266.
Take “UniProt Q9Y561 (peptide sequence: SLFSVESDDTDTENERR, peptide start residue: 646)”: the log2 fold change turned out to be 0.114.
“PPIL1 (peptide sequence: IIKDFMIQGGDPTGTGR, peptide start residue: 56) (UniProt Q9Y3C6)”: the log2 fold change was -0.241.
As to “LRCH1 (peptide sequence: NVENFLEACRK, peptide start residue: 721) (UniProt Q9Y2L9)”, the log2 fold change turned out to be 0.57.
For “PSAT1 (peptide sequence: QVVNFGPGPAK, peptide start residue: 6) (UniProt Q9Y617)”, the log2 fold change was 0.438.
